Results on 2 substances are retold here after publication PMC4402694.

For assay [1], the target named is T1, GST-Slx9 (yeast (S. cerevisiae)) (UniProt P53251).
T1 sequence: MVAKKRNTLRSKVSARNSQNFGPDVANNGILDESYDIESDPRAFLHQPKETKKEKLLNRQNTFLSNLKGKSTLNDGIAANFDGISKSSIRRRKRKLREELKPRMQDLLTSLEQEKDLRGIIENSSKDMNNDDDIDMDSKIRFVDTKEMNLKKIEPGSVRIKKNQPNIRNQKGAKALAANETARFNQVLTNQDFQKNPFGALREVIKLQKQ
Put plainly: pull-down; GST fusion immobilised on GSH-Sepharose in PBSKMT, incubated with one purified protein (2 µM His6-Ran variant, or 0.5 µM Slx9 or Slx9-1) for 1 hr at 4°C, competing E. coli lysates present; Coomassie or Western; both purified.

Another assay addresses T2, GST-Kap123 (UniProt P40069).
T2 sequence: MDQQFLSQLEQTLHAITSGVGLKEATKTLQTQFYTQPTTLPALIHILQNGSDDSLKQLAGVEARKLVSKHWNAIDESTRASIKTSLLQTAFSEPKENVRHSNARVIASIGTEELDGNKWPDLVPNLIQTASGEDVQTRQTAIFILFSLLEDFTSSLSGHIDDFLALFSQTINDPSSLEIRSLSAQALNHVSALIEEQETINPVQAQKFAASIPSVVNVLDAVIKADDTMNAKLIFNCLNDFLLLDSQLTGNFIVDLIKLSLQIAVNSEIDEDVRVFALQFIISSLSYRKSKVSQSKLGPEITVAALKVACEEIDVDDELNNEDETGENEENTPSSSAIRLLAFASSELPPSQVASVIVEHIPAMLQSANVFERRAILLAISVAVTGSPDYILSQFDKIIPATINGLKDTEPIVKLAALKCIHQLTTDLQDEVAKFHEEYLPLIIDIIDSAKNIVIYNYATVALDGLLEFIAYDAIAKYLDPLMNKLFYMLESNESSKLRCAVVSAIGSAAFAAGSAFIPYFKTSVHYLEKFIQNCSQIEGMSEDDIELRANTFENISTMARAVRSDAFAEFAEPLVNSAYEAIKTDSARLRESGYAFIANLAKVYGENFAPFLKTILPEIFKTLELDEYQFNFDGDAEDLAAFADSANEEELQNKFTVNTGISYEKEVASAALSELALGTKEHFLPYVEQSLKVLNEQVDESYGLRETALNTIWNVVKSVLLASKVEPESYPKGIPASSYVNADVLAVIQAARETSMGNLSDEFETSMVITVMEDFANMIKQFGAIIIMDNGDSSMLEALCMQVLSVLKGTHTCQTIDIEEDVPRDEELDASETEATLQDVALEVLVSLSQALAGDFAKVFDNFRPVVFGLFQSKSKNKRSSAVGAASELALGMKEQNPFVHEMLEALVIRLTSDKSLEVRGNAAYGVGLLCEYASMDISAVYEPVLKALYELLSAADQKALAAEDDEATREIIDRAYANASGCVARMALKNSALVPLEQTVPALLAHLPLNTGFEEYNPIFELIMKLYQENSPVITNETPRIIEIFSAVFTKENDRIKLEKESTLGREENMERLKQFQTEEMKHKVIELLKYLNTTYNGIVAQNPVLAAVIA
Described as above.

For assay [2], the target named is T1, GST-Slx9 (yeast (S. cerevisiae)). Put plainly: pull-down; GST-Slx9 immobilised on GSH-Sepharose, incubated with excess of Rio2, unbound Rio2 washed away.

Results are given in words; binding and its absence hold for the method and conditions named. Binding seen in cells or lysates may run through a third protein. A result given as binding can be weak or reduced; the word gives no strength. Tags and fused reporters may be left off the sequences shown.

Turning to “His6-Ran∆C^QLGTP (yeast (S. cerevisiae)) (domain or fragment)”, the binding result (in assay [1]; with GST-Kap123) was “binds” throughout. On to “Rio2 (added in excess to GST-Slx9, Figure 5C) (yeast (S. cerevisiae))”, for which the binding result in assay [2] is on record as “binds”.
